Reference: PubChem BioAssay AID540276 (National Center for Advancing Translational Sciences (NCATS), 2011)
Among all 300,000 compounds or so, about 5,400 (1.8%) were called active. The shares of active, inactive and inconclusive entries below differ from those in the screen. The call rests on the fitted dose curve; tested in HEK293 cells. Potencies of inconclusive entries are doubtful fits and often do not repeat.

assay: qHTS for inhibitors of binding or entry into cells for Marburg Virus; details: Marburg virus pseudotyped entry inhibition, cell reporter; series mostly up to 37.8 µM
Potency means the concentration at half of the fitted maximal effect.

Structure (SMILES)	Potency
C/C(=N\NC(=O)COc1ccc(C)cc1[N+](=O)[O-])c1ccc2c(c1)OCCO2	inconclusive: 22.4 µM [activator, partial curve, poor fit]
CC(=O)C(Sc1ncnc2sc3c(c12)CCCC3)C(C)=O	inconclusive: 7.08 µM [inhibitor, partial curve, poor fit]
COc1ccc(C(=O)Nc2cc(Cl)ccc2OC(=O)c2ccc(OC)cc2)cc1	inconclusive: 29.1 µM [inhibitor, single point]
CCN(CC)S(=O)(=O)c1cccc(C(=O)N/N=C/c2cccc(O)c2O)c1	inconclusive: 20 µM [inhibitor, partial curve, poor fit]
O=C(NCc1ccccn1)c1ccc(NS(=O)(=O)c2ccccc2)cc1	inconclusive: 35.5 µM [activator, partial curve, poor fit]
NS(=O)(=O)c1ccc(NC(=O)COC(=O)C23CC4CC(CC(C4)C2)C3)cc1	inconclusive: 0.1 µM [activator, full curve, poor fit]
COCC1CCCCN1C(=O)CCCn1nnnc1CN1CCC(C)CC1 (stereo not drawn)	inconclusive: 35.5 µM [activator, single point]
CCN(CC)CC#CCC(O)(c1ccccc1)C1CCCC1 (stereo not drawn)	inconclusive: 18.3 µM [inhibitor, single point]
O=C(CC1C(=O)N(c2ccc(F)cc2)C(=O)N1Cc1ccc2c(c1)OCO2)Nc1ccc(Cl)cc1 (stereo not drawn)	inconclusive: 11.2 µM [inhibitor, single point]
O=C(Nc1ccc2c(c1)C(=O)c1ccccc1-2)c1ccccc1	inconclusive: 0.562 µM [activator, full curve, poor fit]
Cc1ccc(C)c(NC(=O)CSc2n[nH]c(-c3ccccn3)n2)c1	inconclusive: 35.5 µM [inhibitor, single point]
O=C1N(Cc2cccnc2)C[C@@H]2C[C@@H](c3ccc4nsnc4c3)N3CCC[C@@]123	inconclusive: 35.5 µM [inhibitor, partial curve, poor fit]
O=C(NCCNC(=O)c1cc(OCC(F)(F)F)ccc1OCC(F)(F)F)Nc1ccccc1	inconclusive: 32.6 µM [inhibitor, single point]
CC(C)c1ccccc1NC(=O)COC(=O)c1cccnc1	inactive
CC(NCC(O)COCc1ccc(Cl)cc1)c1ccccc1 (stereo not drawn)	inconclusive: 35.5 µM [inhibitor, partial curve, poor fit]
Brc1ccccc1-c1nc(-c2ccccc2)no1	inactive
O=C(O)c1cc[c]([Hg][Cl])cc1	inconclusive: 2.51 µM [inhibitor, full curve]
CC1CN(C(=O)c2ccccc2)C(=Nc2cccc(S(=O)(=O)N(C)C)c2)S1 (stereo not drawn)	inconclusive: 35.5 µM [inhibitor, partial curve, poor fit]
CC(C)c1ccc(COC(=O)CN2C(=O)NC3(CCCCC3C)C2=O)cc1 (stereo not drawn)	inconclusive: 20 µM [inhibitor, single point]
OCCCNCc1ccc(N(c2ccccc2)c2ccccc2)cc1	inconclusive: 14.1 µM [inhibitor, partial curve, poor fit]
Cc1sc(NC(=O)/C=C/c2ccc(C(C)C)cc2)c(C#N)c1C	inconclusive: 0.0065 µM [inhibitor, full curve, poor fit]
Cc1cccc(C(c2c(C)nn(-c3ccccc3)c2N)c2c(C)nn(-c3ccccc3)c2N)c1	inconclusive: 0.316 µM [activator, partial curve, poor fit]

Taken from above:
Entry for Cc1cccc(C(c2c(C)nn(-c3ccccc3)c2N)c2c(C)nn(-c3ccccc3)c2N)c1 under Potency: inconclusive: 0.316 µM [activator, partial curve, poor fit]
Entry for NS(=O)(=O)c1ccc(NC(=O)COC(=O)C23CC4CC(CC(C4)C2)C3)cc1 under Potency: inconclusive: 0.1 µM [activator, full curve, poor fit]
Entry for COc1ccc(C(=O)Nc2cc(Cl)ccc2OC(=O)c2ccc(OC)cc2)cc1 under Potency: inconclusive: 29.1 µM [inhibitor, single point]
Entry for CC(C)c1ccccc1NC(=O)COC(=O)c1cccnc1 under Potency: inactive

Later entries:

Structure (SMILES)	Potency
Cc1ccc(N(C(=O)c2sc(C)nc2C)C(C(=O)NCc2ccco2)c2ccccc2)cc1 (stereo not drawn)	inconclusive: 16.4 µM [inhibitor, partial curve, poor fit]
CSc1nc2ccc(NC(=O)c3cccs3)cc2s1	inactive
CSCCNC(=O)c1ccc2nc(Cc3ccccc3F)oc2c1	inconclusive: 2.82 µM [activator, single point]
COc1cc(Cl)c(CN2CCCC(CO)(Cc3ccccc3F)C2)cc1OC (stereo not drawn)	active: 2.82 µM
CCC(COC)NCc1cn(-c2ccc(OC)cc2)nc1-c1cccc(F)c1 (stereo not drawn)	active: 10 µM
c1ccc(Nc2nc(N3CCNCC3)nc(N3CCOCC3)n2)cc1	active: 11.2 µM
OC1(c2ccc(OC(F)F)cc2)CSC(=Nc2cccnc2)N1C1CC1 (stereo not drawn)	active: 3.55 µM
CCN(CC)S(=O)(=O)c1cc(NC(=O)c2ccccc2OCc2c(C)noc2C)ccc1C	inconclusive: 0.282 µM [inhibitor, partial curve, poor fit]
Cn1nnnc1CCOCCc1nnnn1C	inconclusive: 35.5 µM [activator, single point]
CC(C)CCC(C)NC(=O)c1ccc2nccnc2c1 (stereo not drawn)	inconclusive: 1.78 µM [activator, partial curve, poor fit]
O=C(CSc1nc2ccccc2c(=O)n1-c1ccc(SC(F)F)cc1)Nc1ccc(N2CCOCC2)cc1	inconclusive: 2.82 µM [inhibitor, single point]
CC(NC(=O)Nc1cccc([N+](=O)[O-])c1)(C(F)(F)F)C(F)(F)F	inconclusive: 35.5 µM [inhibitor, single point]
COC(=O)c1scc(C)c1NC(=O)c1ccc(Cl)cc1	inactive
CC1CCCN(c2nc3c(-c4ccc(Cl)cc4)nnn3c3ccccc23)C1 (stereo not drawn)	inactive
OC[C@@H](O)[C@H](O)C(/C=N/Nc1ccccc1)=N\Nc1ccccc1	inactive
CCC(=O)Oc1c(Sc2ccc(Cl)cc2)c(C)nn1-c1ccccc1	inactive
Cc1ccc(Cl)cc1N1CCN(C(=O)Cn2ncc3c4ccccc4n(C)c3c2=O)CC1	inactive
Cc1ccnc(N/C=C/C(=O)c2ccc(Br)cc2)c1	inconclusive: 17.8 µM [inhibitor, single point]
COc1ccc2[nH]c3c(NCCN(C(C)C)C(C)C)ncnc3c2c1	active: 11.2 µM
Cc1c(NC(=O)OCCNC(=O)COc2ccc(Cl)cc2Cl)sc(=S)n1C	inconclusive: 28.2 µM [inhibitor, single point]
COc1ccc(N/C=C\C(=O)c2ccc(Br)cc2)cc1OC	inconclusive: 4.47 µM [activator, full curve, poor fit]
